Some of these results come from one statement about several compounds together.
Tests used:
human ERβ (ERβ-LBD) = biological target: T1, human ERβ (ERβ-LBD) (Homo sapiens, UniProt Q92731); assay: Binding assay 1: estrogen receptor SPA binding assay (3H-E2 displacement), ERβ; conditions: binding assay 1, ERβ over ERα
T1 construct: ERβ (ERβ-LBD, pET-N-AT #1, aa 255-530); made in house; host or cells: E. coli BL21 (DE3) pBirA
Procedure: Binding Assay 1: Estrogen Receptor Binding Assay
The estrogen receptor ligand binding assays are designed as scintillation proximity assays (SPA), employing the use of tritiated estradiol (^3H-E2) and recombinant expressed biotinylated estrogen receptor binding domains. The binding domains of human ERα (ERα-LBD, pET-N-AT #1, aa 301-595) and ERβ (ERβ-LBD, pET-N-AT #1, aa 255-530) proteins are produced in E. coli ((BL21, (DE3), pBirA)) at 22 C in 2×LB medium supplemented with 50 uM biotin. After 3 h of IPTG induction (0.55 mM), cells are harvested by centrifugation at 7300×g for 15 min and cell pellets stored frozen in −20 C. Extraction of ERα and ERβ are performed using 5 g of cells suspended in 50 mL of extraction buffer (50 mM Trig, pH 8.0, 100 mM KCl, 4 mM EDTA, 4 mM DDT and 0.1 mM PMSF). The cell suspension is run twice through a Microfluidizer M-110L (Microfluidics) and centrifuged at 15,000×g for 60 min. The supernatant is aliquoted and stored in −70 C.
Dilute ERα-LBD or ERβ-LBD extracts in assay buffer (18 mM K2HPO4, 2 mM KH2PO4, 20 mM NasMoO4, 1 mM EDTA, 1 mM TCEP) 1:676 and 1:517 for alpha and beta respectively. The diluted receptor concentrations should be 900 fmol/L. Preincubate the extracts with streptavidin coated polyvinyltoluene SPA beads (RPNQ0007, GE Healthcare) at a concentration of 0.43 mg/mL for 1 hr at room temperature.
Test compounds are evaluated over a range of concentrations from 157 μM to 37.5 pM. The test compound stock solutions should be made in 100% DMSO at 5× of the final concentration desired for testing in the assay. The amount of DMSO in the test wells of the 384 well plate will be 20%. Add 18 μl aliquots of test compounds to the assay plates followed by 35 μl of the preincubated receptor/SPA bead mix and finally add 35 μl of 3 nM ^3H-E2. Cover the plates with a plastic sealer, centrifuge for 1 minute at 1000 rpm and equilibrate over night on a shaker at room temperature. The following morning, centrifuge the plates 5 minutes at 2000 rpm and measure on a plate scintillation counter e.g. a PerkinElmer Microbeta 1450 Trilux.
For compounds able to displace 3[H]-E2 from the receptor an IC50-value (the concentration required to inhibit 50% of the binding of 3[H]-E2) is determined by a non-linear four parameter logistic model; b=((bmax−bmin)/(1+(I/IC50)S))+bmin I is added concentration of binding inhibitor, IC50 is the concentration of inhibitor at half maximal binding and S is a slope factor. The Microbeta-instrument generates the mean cpm (counts per minute) value/minute and corrects for individual variations between the detectors thus generating corrected cpm values.

Amino acid sequences for entries named in this document (tags omitted). Residues count along the entry.
UniProt Q92731, 255-530: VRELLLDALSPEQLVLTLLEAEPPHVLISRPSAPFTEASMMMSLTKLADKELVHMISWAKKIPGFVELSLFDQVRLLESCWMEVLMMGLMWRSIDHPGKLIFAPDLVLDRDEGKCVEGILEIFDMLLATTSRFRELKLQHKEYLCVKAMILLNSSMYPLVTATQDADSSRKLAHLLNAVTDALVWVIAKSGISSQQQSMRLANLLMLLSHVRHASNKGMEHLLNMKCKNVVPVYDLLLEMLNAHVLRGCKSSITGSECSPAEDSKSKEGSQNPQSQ
UniProt Q92731, whole entry: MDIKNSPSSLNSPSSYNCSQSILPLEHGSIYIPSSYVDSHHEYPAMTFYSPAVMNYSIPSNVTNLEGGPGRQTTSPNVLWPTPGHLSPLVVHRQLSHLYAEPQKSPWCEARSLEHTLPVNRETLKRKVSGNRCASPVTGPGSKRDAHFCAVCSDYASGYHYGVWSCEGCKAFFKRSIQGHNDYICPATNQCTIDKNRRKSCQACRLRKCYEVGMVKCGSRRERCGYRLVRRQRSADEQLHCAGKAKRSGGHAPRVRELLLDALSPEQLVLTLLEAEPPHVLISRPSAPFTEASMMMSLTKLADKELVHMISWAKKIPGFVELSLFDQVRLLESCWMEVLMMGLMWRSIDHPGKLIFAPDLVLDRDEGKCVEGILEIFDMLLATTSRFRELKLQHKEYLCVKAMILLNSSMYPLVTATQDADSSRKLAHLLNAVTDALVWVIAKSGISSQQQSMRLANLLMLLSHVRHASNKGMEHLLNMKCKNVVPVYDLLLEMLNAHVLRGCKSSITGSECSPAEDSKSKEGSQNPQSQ

[1] = biological target: T2, human estrogen receptor beta (hERβ 530) (Homo sapiens, UniProt Q92731); assay: Transactivation assay 2: HEK293 cells stably transfected with pERE2-ALP and human estrogen receptor beta; format: cell-based; conditions: transactivation assays 1 and 2, ERβ over ERα
T2 construct: expressed in transfected cells
Procedure: Transactivation Assay 2: Transactivation Assay in Human Embryonic Kidney 293 Cells Stably Transfected with pERE2-ALP and Human Estrogen Receptor Beta
Generation of stable HEK293 cell lines (CRL-1573; American Type Culture Collection) expressing the reporter vector pERE2-ALP and human estrogen receptor beta (hERβ 530) have been described (Mol Pharmacol 1998, 54, 105-112; Endocrinology 2002, 143, 1558-1561),
The cells were seeded in 384-well plates at 12 500 cells per well in Ham's F12 Coon's modification (without phenol red) with 10% dextran-coated charcoal treated (DCC) fetal bovine serum (FBS), 2 mM L-glutamine and 50 μg/ml gentamicin. After 24 h incubation (37° C., 5% CO2) the seeding medium was discarded and replaced with 20 μl Ham's F12 Coon's modification (without phenol red) with 1.5 DCC-FCS, 2 mM L-glutamine and supplemented with 100 U/ml penicillin and 100 μg/ml streptomycin. The selected compounds were added to the wells in 12 concentrations ranging from […] to 33 μM. The compounds were dissolved in 100% dimethylsulfoxide (DMSO) and the final concentration of DMSO in the assay was 0.1%. After 72 h incubation (37° C., 5% CO2) the medium was assayed for ALP activity by a chemiluminescence assay; a 10 μl aliquot of the conditioned medium was mixed with 100 μl assay buffer (0.1 M diethanolamine, 1 mM MgCl2) and 0.5 mM disodium 3-(4-methoxyspiro 1,2-dioxetane-3,2′-(5′-chloro)-tricyclo[3.3.1.13,7]decan-4-yl)phenyl phosphate (CSPD) (Tropix, Applied Biosystems) and incubated for 20 min at 37° C. and 15 min at room temperature before measurement of the chemiluminescent signal (one second per well) in a Wallac Microbeta Trilux 1450-028 (PerkinElmer). The ALP activity expressed in LCPS is directly proportional to the level of ALP expressed by the cells. The half maximal effective concentrations of the test compounds (EC50) were calculated from the curves fitted to the concentration-response data with a four parameter logistic model in XLfit software version 2.0 (IDBS) or later.

SMILES: Cc1noc(C)c1-c1c(/C(N)=N/O)c2cc(F)ccc2n1-c1ccc(O)cc1 [Example 221, (Z)-2-(3,5-dimethylisoxazol-4-yl)-5-fluoro-N′-hydroxy-1-(4-hydroxyphenyl)-1H-indole-3-carboximidamide]
- selectivity for the estrogen receptor β-subtype over the α-subtype in the binding assay (human ERβ (ERβ-LBD)): ≥ 50
- selectivity for the estrogen receptor β-subtype over the α-subtype in the transactivation assays [1]: ≥ 50

Source: patent publication US8653072B2, “Estrogen receptor ligands” (Karo Bio AB, priority 2008, dated 2014)
